Measured values taken from US10517862B2, “Fused heterocyclic compound derivative and application thereof” (NHWA PHARMA. CORPORATION, priority 2015, dated 2019).

Legend:
5HT1A receptor = biological target: T1, 5HT1A receptor (Rattus norvegicus, UniProt P19327); test: 5HT1A receptor binding assay (3H-8-OH-DPAT, rat striatum membrane); conditions: test compound final concentration 10^−5 M, read-out: 5HT1A Inhibition rate (%)
T1 construct: Rats were decapitated on ice; from tissue; host or cells: rat brain striatum
T1 sequence (P19327 1-422): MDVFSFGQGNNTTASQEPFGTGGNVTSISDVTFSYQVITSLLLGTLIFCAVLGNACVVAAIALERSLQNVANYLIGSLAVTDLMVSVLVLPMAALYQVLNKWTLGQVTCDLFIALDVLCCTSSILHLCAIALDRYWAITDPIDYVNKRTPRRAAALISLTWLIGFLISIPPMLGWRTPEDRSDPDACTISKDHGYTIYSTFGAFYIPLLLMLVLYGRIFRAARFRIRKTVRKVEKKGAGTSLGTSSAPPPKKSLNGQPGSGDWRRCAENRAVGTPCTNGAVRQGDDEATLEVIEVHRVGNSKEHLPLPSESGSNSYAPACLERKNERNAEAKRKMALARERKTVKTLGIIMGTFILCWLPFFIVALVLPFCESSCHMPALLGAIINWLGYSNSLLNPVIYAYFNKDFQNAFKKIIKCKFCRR
Protocol: Preparation of 5HT1A Membrane
Rats were decapitated on ice. […] Incubation at 37° C. was conducted for 10 min. […] Centrifugation was conducted at 12000 rpm, 4° C. for 20 min. […] Centrifugation was conducted and repeated 3 times.
(§1) Materials for the Receptor Binding Assay

5HT2C receptor = biological target: T2, 5HT2C receptor (Rattus norvegicus, UniProt P08909); test: 5HT2C receptor binding assay ([3H]-mesulergine, rat striatum membrane); conditions: test compound final concentration 10^−5 M, read-out: 5HT2C Inhibition rate (%)
T2 construct: from tissue; host or cells: rat brain striatum
T2 sequence (P08909 33-460): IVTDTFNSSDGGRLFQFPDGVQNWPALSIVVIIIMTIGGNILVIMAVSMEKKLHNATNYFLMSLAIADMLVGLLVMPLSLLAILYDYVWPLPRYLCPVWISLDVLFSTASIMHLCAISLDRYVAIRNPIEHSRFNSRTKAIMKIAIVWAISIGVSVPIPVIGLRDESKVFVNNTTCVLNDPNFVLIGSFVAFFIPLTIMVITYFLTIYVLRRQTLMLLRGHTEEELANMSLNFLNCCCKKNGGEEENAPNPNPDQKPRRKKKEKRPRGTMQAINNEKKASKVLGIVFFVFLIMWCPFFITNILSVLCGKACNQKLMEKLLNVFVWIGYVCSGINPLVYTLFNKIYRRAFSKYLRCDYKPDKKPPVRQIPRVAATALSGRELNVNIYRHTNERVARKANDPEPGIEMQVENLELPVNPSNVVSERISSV
Protocol: Preparation of 5HT2C Membrane
Rats were decapitated on ice. […] Centrifugation was conducted.
as §1

[1] = system: α1 norepinephrine receptor; test: α1 norepinephrine receptor binding assay (3H-prazosin, rat cortex membrane); conditions: test compound final concentration 10^−5 M
Source text: Preparation of Receptor Membrane of Norepinephrine
α1 Norepinephrine Receptor Binding Assay

Structure (SMILES): Cc1nc2n(c(=O)c1CCN1CCC(c3noc4cc(F)ccc34)CC1)CCCC2 [risperidone]
- inhibition at 10 µM (5HT1A receptor): 85.2%
- inhibition at 10 µM (5HT2C receptor): 105%
- α1 Inhibition rate (%) [1]: 96.10%
